Assay results: paper PMC11534337
Results are given in words; binding and its absence hold for the method and conditions named. In cells and extracts the contact can be indirect. Some results given as binding are weak or reduced against the parent protein; the word gives no strength. For some assays here: Tags and fused reporters may be left off the sequences shown. One block for each binder: values may come before it.

Protein sequences, listed by entry. Tags and fused reporters are not part of them. Lines headed by an entry give the natural chain unless they say otherwise; changes in a name come on top.
UniProt P26369: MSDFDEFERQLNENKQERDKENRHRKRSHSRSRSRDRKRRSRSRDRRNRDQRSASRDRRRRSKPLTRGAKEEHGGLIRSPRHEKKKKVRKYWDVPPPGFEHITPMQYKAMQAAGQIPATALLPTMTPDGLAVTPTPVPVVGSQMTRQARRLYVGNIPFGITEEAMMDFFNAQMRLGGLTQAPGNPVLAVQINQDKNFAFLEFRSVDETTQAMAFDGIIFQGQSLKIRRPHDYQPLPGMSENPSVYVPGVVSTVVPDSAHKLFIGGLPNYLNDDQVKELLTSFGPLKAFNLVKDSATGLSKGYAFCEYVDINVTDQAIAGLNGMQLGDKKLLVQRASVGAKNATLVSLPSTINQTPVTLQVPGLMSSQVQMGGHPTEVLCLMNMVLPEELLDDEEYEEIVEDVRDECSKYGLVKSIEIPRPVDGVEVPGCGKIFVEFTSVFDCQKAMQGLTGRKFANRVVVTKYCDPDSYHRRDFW
UniProt P26368: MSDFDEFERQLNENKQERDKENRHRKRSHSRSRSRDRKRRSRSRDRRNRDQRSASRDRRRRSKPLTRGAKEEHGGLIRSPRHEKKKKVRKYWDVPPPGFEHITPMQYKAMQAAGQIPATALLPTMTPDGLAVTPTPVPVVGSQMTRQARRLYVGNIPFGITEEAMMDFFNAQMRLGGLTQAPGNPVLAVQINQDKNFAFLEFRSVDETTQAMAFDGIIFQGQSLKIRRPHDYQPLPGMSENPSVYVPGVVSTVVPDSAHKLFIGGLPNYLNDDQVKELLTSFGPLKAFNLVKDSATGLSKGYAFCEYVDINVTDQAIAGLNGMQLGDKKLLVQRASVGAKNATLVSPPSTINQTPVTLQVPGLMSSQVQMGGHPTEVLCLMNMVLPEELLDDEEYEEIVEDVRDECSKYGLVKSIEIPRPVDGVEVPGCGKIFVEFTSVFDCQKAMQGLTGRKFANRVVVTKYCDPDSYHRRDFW

Legend:
[1] = molecular target: U2AF2 (mouse (endogenous in primary mouse TECs and mouse kidney)) (UniProt P26369); assay: co-IP; whole-kidney lysates; IP with anti-U2AF2 antibody; endogenous proteins
Flag-U2af2 WT = Flag-U2af2 WT (UniProt P26369); assay: co-IP; WT TECs transfected with Flag-U2af2 and HA-Hat1 (Figure 4N) or with Flag-U2af2, Ad-Hat1 or Ad-shHat1 under TGF-β1 (Figure 4Q); IP with anti-Flag antibody
Flag-U2AF2 K413R = Flag-U2AF2 K413R (UniProt P26368); assay: co-IP; HK2 cells transfected with Flag-U2AF2 WT or K413R; IP with anti-Flag antibody; with or without RNase; also under TGF-β1 with SIRT4 overexpression or knock-down (Figure 5D)
Flag-U2AF2 WT, P26368 = assay: as above; conditions: remark: other sources report otherwise

binding [1]: binds
B1: HAT1 (protein, UniProt Q8BY71 1-416)
chain: MAALEKFLVEYKSAVEKKLAEYKCNTNTAIELKLVRFPEDLENDIRTFFPEYTHQLFGDDETAFGYKGLKILLYYIAGSLSTLFRVEYSSKVDENFDCVEADDVEGKIRQIIPPGFCTNTNDFLSLLEKETNFKPFGTLLHTYTVPSQTGGETFTFQIHKADMTCRGFREYHERLQTFLMWFIETASFIDVDDERWHYFLVFEKYNKDGATLFATVGYMTVYNYYVYPDKTRPRVSQMLILTPFQGQGHGAQLLETVHRYYISFPTVLDITAEDPSRSYLKLRDFVLVKFCQFLPSFSRERLLQGFSEDMAIQAQQMFKINKQHARRVYEILRLLVTDMSDAEQYRSYRLDIKRRLISPYKKKQRDLAKMKKCLRPEELTNQMNQIEISVQHEQLEERFQELVEDYRRVIERLAQE

binding (Flag-U2af2 WT): binds
B2: HA-Hat1 (protein, UniProt Q8BY71 1-416)
chain: MAALEKFLVEYKSAVEKKLAEYKCNTNTAIELKLVRFPEDLENDIRTFFPEYTHQLFGDDETAFGYKGLKILLYYIAGSLSTLFRVEYSSKVDENFDCVEADDVEGKIRQIIPPGFCTNTNDFLSLLEKETNFKPFGTLLHTYTVPSQTGGETFTFQIHKADMTCRGFREYHERLQTFLMWFIETASFIDVDDERWHYFLVFEKYNKDGATLFATVGYMTVYNYYVYPDKTRPRVSQMLILTPFQGQGHGAQLLETVHRYYISFPTVLDITAEDPSRSYLKLRDFVLVKFCQFLPSFSRERLLQGFSEDMAIQAQQMFKINKQHARRVYEILRLLVTDMSDAEQYRSYRLDIKRRLISPYKKKQRDLAKMKKCLRPEELTNQMNQIEISVQHEQLEERFQELVEDYRRVIERLAQE

binding (Flag-U2af2 WT): binds
B3: HAT1 (Figure 4Q) (protein, UniProt Q8BY71 1-416)
chain: MAALEKFLVEYKSAVEKKLAEYKCNTNTAIELKLVRFPEDLENDIRTFFPEYTHQLFGDDETAFGYKGLKILLYYIAGSLSTLFRVEYSSKVDENFDCVEADDVEGKIRQIIPPGFCTNTNDFLSLLEKETNFKPFGTLLHTYTVPSQTGGETFTFQIHKADMTCRGFREYHERLQTFLMWFIETASFIDVDDERWHYFLVFEKYNKDGATLFATVGYMTVYNYYVYPDKTRPRVSQMLILTPFQGQGHGAQLLETVHRYYISFPTVLDITAEDPSRSYLKLRDFVLVKFCQFLPSFSRERLLQGFSEDMAIQAQQMFKINKQHARRVYEILRLLVTDMSDAEQYRSYRLDIKRRLISPYKKKQRDLAKMKKCLRPEELTNQMNQIEISVQHEQLEERFQELVEDYRRVIERLAQE

binding (Flag-U2AF2 K413R): binds
B4: U2 small nuclear RNA auxiliary factor 1 (U2AF1) (protein, UniProt Q01081 1-240)
chain: MAEYLASIFGTEKDKVNCSFYFKIGACRHGDRCSRLHNKPTFSQTIALLNIYRNPQNSSQSADGLRCAVSDVEMQEHYDEFFEEVFTEMEEKYGEVEEMNVCDNLGDHLVGNVYVKFRREEDAEKAVIDLNNRWFNGQPIHAELSPVTDFREACCRQYEMGECTRGGFCNFMHLKPISRELRRELYGRRRKKHRSRSRSRERRSRSRDRGRGGGGGGGGGGGGRERDRRRSRDRERSGRF

binding (Flag-U2AF2 WT, P26368): binds
B5: U2 small nuclear RNA auxiliary factor 1 (U2AF1), Q01081 1-240 (protein)
chain: MAEYLASIFGTEKDKVNCSFYFKIGACRHGDRCSRLHNKPTFSQTIALLNIYRNPQNSSQSADGLRCAVSDVEMQEHYDEFFEEVFTEMEEKYGEVEEMNVCDNLGDHLVGNVYVKFRREEDAEKAVIDLNNRWFNGQPIHAELSPVTDFREACCRQYEMGECTRGGFCNFMHLKPISRELRRELYGRRRKKHRSRSRSRERRSRSRDRGRGGGGGGGGGGGGRERDRRRSRDRERSGRF
